According to publication PMC12345722:
For at least one entry, the source does not settle the construct or the ends of the probe.

Columns and labels:
[1] = test system: Glycated hemoglobin (HbA1c); assay: electrochemical aptasensor (direct Fe2+/Fe3+ oxidation peak); conditions: 5.5% HbA1c, about 20 uA at about -0.37 V, aptamer on SPE/CD-CNTs/AuNPs, MCH blocked; 5' thiol-Spacer C6; 3' ferrocene; Aptamer in 0.1 M TRIS, 0.1 M NaCl, 0.1 M KCl, 5 mM MgCl2, pH 7.5; HbA1c in Trinity Biotech Diluent, incubated 30-60 min at 4, 25 or 37 C; commercial protein; label: ferrocene (3'); single-stranded DNA
[2] = test system: Glycated hemoglobin (HbA1c); assay: binding assay; conditions: Aptamer in 0.1 M TRIS, 0.1 M NaCl, 0.1 M KCl, 5 mM MgCl2, pH 7.5; HbA1c in Trinity Biotech Diluent, incubated 30-60 min at 4, 25 or 37 C; commercial protein; single-stranded DNA

Row | Sequence | binding result [1] | Kd [2]
1 | TGGCAGGAAGACAAACACATCGTCGCGGCCTTAGGAGGGGCGGACGGGGGGGGGCGTGGTCTGTGGTGCTGT [HbA1c DNA aptamer, thiol/ferrocene] | binds | –
2 | TGGCAGGAAGACAAACACATCGTCGCGGCCTTAGGAGGGGCGGACGGGGGGGGGCGTGGTCTGTGGTGCTGT [HbA1c DNA aptamer (literature, ref 6)] | – | 7.3 nM
